Laboratory results as given in patent US8175815B2, “Method for assessing absorption properties of low solubility compounds” (F. Hoffmann-La Roche AG, priority 2006, dated 2012).

Settings: PAMPA, 30 min, 50 µM

SMILES: CCCCc1oc2ccccc2c1C(=O)c1cc(I)c(OCCN(CC)CC)c(I)c1 [amiodarone]
- Pe(pH 5.0): 581 cm s^−1
- Pe(pH 6.2): 1110 cm s^−1
- Pe(pH 7.4): 1180 cm s^−1

SMILES: COc1ccc2cc([C@H](C)C(=O)O)ccc2c1 [naproxen]
- Pe(pH 5.0): 525 cm s^−1
- Pe(pH 6.2): 58 cm s^−1
- Pe(pH 7.4): 4 cm s^−1
